These are yes or no findings as the source states them, for the method shown. In cells and extracts the contact can be indirect.
Molecular target: Flag-Pak4 (UniProt O96013)
Assay: co-IP; HEK293T cells (the legend says HEK293) co-expressing Flag-Pak4 and EGFP fusions; IP with anti-GFP or anti-Flag, immunoblot with anti-GFP or anti-Flag; lysis in 50 mM Tris-HCl pH 7.5, 150 mM NaCl, 2 mM EDTA, 1% NP-40, 4°C

By UniProt entry, the sequences of proteins in these tests, tags left out.
UniProt O96013: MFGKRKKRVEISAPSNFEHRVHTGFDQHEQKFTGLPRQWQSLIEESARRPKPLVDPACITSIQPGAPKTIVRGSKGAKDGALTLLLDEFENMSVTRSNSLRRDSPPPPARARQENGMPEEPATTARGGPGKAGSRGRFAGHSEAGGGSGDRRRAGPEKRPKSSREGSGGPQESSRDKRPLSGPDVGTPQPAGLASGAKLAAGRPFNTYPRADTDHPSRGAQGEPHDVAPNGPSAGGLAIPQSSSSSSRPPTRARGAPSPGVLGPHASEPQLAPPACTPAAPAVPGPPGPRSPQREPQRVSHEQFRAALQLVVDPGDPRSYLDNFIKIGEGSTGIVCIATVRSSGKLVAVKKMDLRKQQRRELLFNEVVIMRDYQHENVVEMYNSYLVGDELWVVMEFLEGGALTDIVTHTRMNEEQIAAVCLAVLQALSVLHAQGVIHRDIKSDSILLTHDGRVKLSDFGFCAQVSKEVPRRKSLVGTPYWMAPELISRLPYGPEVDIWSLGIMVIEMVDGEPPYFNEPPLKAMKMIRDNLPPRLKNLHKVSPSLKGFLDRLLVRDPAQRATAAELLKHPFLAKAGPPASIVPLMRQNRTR

## EGFP-Inka2ΔiBox (from UniProt Q80VY2-2)
  binding: no binding

— publication PMC9612522
